Measured values reported in patent US20160017002 (published 2016).
[ ]: non-standard residue; d: D form. The star is where a group is joined. Trt = c1ccc(C(c2ccccc2)(c2ccccc2)*)cc1; hArg = N=C(N)NCCCC[C@H](N)C(=O)O; OtBu = CC(C)(C)O*; Mpa = O=C(O)CCS

Assay: general procedure: solution-phase peptide synthesis; EDAC.HCl/HOBT
Conditions: coupling step

Which “crude HPLC purity” value does the source give for H-GD(OtBu)WPC(Trt)-NH2 here?
The value was 95%.

With [Mpa](Trt)[hArg]GD(OtBu)WPC(Trt)-NH2 as the substance, how does the “crude HPLC purity” value read?
Its value is 95%.
